Results are given in words; binding and its absence hold for the method and conditions named. In cells and extracts the contact can be indirect. Some results given as binding are weak or reduced against the parent protein; the word gives no strength. For some assays here: Where a sequence is shown, tags or fusion partners need not be part of it.

Sequences of proteins named here, by UniProt entry; tags and fusion partners are left off.
UniProt P52701: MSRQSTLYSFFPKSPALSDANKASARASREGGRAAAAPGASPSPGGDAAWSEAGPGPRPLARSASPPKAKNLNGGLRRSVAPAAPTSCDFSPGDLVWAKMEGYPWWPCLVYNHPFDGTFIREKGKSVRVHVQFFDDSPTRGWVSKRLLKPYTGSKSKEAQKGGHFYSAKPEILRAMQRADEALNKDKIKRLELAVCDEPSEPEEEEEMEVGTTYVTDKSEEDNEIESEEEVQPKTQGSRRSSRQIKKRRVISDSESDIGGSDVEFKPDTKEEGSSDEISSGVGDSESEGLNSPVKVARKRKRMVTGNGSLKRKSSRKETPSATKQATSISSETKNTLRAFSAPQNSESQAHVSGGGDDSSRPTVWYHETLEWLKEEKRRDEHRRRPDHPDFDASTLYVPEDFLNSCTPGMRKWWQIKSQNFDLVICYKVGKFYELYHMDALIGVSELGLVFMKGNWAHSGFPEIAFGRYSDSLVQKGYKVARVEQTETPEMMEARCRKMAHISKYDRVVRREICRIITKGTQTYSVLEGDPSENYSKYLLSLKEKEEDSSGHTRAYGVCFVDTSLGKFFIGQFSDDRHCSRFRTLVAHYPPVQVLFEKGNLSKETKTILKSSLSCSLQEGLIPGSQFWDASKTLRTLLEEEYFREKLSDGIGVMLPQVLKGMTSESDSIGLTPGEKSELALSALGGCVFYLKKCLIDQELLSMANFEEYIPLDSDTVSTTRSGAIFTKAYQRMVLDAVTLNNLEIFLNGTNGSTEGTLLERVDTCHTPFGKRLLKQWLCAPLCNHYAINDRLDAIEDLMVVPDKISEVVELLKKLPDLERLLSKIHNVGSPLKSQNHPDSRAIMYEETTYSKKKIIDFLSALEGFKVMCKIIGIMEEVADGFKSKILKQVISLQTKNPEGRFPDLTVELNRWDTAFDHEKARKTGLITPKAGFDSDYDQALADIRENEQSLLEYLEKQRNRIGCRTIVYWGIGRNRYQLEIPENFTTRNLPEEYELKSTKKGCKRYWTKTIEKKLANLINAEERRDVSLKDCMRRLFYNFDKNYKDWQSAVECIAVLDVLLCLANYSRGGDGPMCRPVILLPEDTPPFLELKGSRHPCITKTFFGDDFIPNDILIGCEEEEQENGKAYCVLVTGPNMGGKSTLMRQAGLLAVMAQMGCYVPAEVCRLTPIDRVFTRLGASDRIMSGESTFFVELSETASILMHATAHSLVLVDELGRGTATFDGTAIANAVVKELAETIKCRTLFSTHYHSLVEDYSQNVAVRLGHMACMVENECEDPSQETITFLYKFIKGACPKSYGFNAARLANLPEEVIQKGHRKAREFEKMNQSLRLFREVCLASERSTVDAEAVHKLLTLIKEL

In assay [1] the target is C-terminal FLAG-tagged SETD2 (FLAG knock-in HeLa cells) (human (endogenous in HeLa)) (UniProt Q9BYW2). Put plainly: co-IP; anti-Flag M2 affinity gel with lysates of FLAG-KI HeLa cells in RIPA buffer, overnight at 4 °C; with or without H2O2 treatment.
Assay [2] has as its target T1, GST-tagged SETD2 SET domain (aa 1418-1714), made in E. coli (human) (UniProt Q9BYW2).
T1 sequence: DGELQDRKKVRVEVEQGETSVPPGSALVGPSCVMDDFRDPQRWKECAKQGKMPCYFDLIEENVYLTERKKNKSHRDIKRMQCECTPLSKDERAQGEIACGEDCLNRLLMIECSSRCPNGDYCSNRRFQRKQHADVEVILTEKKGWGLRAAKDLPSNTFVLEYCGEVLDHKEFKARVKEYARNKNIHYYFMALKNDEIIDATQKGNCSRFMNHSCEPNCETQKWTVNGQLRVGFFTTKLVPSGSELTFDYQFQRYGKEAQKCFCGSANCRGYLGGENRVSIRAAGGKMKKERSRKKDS
Briefly: pull-down; GST-SETD2 fragments from bacterial lysates held on GST beads, incubated with HeLa cell lysate in RIPA buffer; Western blot; only the target purified.

For MSH6 (from UniProt P52701 1-1360), the binding entry in assay [1] and in assay [2] was “binds” throughout.

(Values after paper PMC9241034.)
